# From PubChem BioAssay AID2685 (National Center for Advancing Translational Sciences (NCATS), 2010)
# The other results are listed elsewhere or left out. Further columns of the screen follow, without active or inactive calls. Most of these compounds were active or inconclusive in the main read-out, so they are no random draw. Words in brackets tell the shape of the fitted curve; partial curves, single points and poor fits give uncertain potencies.
# Assay: qHTS Assay for Lipid Storage Modulators in Drosophila S3 Cells;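 on cell number change: cells counted by Cell Tracker Red CMTPX staining in the red channel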
# Conditions: BODIPY lipid droplet fluorescence, 18-24 h; for cell number change: measured here: cell count max response, cells fed with added oleic acid
# Method in brief: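 Laser-scanning cytometry quantifies lipid droplet accumulation (500–530 nm total intensity; droplet/cell object ratio) in oleic acid-fed (400 uM added) Drosophila S3 cells treated with a concentration series. 20 uM Triacsin C defined 100% inhibition.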
# [1] = measured here: lipid fluorescence (Fed channel) AC50, cells fed with added oleic acid
# [2] = measured here: cell number channel AC50, cells fed with added oleic acid
Compound,cell number change [%],AC50 [1],AC50 [2]
CCN1C(=O)NC2C1N(S(C)(=O)=O)CCN2S(C)(=O)=O (stereo not given),0.209,"3.26 µM [rising, single point]",
O=C(Nc1c2c(nn1-c1ccc(F)cc1)CSC2)c1ccc(S(=O)(=O)N2CCOCC2)cc1,,"6.51 µM [rising, single point]",
CS(=O)(=O)N(CC(=O)NCc1cccnc1)Cc1ccc(Cl)cc1,,"3.26 µM [rising, single point]",
CC(C)NC(=O)CN(CCc1ccccc1)S(C)(=O)=O,,"7.31 µM [falling, partial curve]",
CC(C)(C)NC(=O)c1cc2c(ccc3ccccc32)oc1=O,-12,,
O=C(Nc1ccc(Oc2ccccc2)nc1)C1CCCCN1Cc1ccc(O)cc1 (stereo not given),-24,"6.51 µM [rising, single point]",
CCOc1cc(N2CCOCC2)c(OCC)cc1NC(=O)Cn1[nH]c(=O)c2ccccc2c1=O,-0.334,,
O=C(Nc1ccc(Cn2cccn2)cc1)c1ccc(COc2ccc(Br)cc2)cc1,17.1,,
CCN(CC(=O)Nc1cc(Cl)ccc1C)C(=O)Cn1c(=O)cnc2ccccc21,16.9,,
O=C1c2ccccc2C(=O)N1CC#CCN1CCN(C2CCCCC2)CC1,-75.2,"20.6 µM [falling, single point]","18.4 µM [falling, partial curve]"
COc1cccc(NC(=O)N2CCN(S(C)(=O)=O)CC2)c1,-24.3,"23.1 µM [falling, single point]",
Cc1ccc(N2C(=O)CN(Cc3ccccc3)C2=S)cc1C,-19,"6.51 µM [rising, single point]",
Cc1ccc(C)c(N(CC(=O)N2CCCC2)S(C)(=O)=O)c1,-4.85,"0.231 µM [rising, full curve, poor fit]",
O=Cc1[nH]c2ccccc2c1N(C(=O)CCl)c1ccccc1,-13.1,"20.6 µM [falling, single point]",
COc1ccccc1-c1noc(CCC(=O)NC2CCCC2)n1,4.91,"23.1 µM [rising, single point]",
COc1ccc(C2CC(c3ccccc3OC(C)=O)=NN2C(C)=O)cc1 (stereo not given),0.76,,
Cc1ccc(OCC(=O)Nc2ccc(S(=O)(=O)N3CCOCC3)cc2)c(Br)c1,,"1.58 µM [falling, partial curve]",
S=C(Nc1ccc(Cl)cc1)Nc1cccc2cnccc12,11.7,"5.8 µM [rising, partial curve]",
O=C(c1ccco1)N1c2ccccc2Sc2ccccc21,,"0.00517 µM [falling, full curve, poor fit]",
Cc1cc(NC(=O)CSC2=NS(=O)(=O)c3ccccc3N2)no1,-6.73,,
CC1CN(S(=O)(=O)c2cccc(C(=O)Nc3cc(Cl)ccc3N3CCOCC3)c2)CC(C)O1 (stereo not given),4.45,,"0.731 µM [rising, single point]"
Cc1ccnc(NC(=O)CCCNC(=O)c2ccc(Cl)cc2)c1,22.8,"7.31 µM [rising, partial curve]",

# Some values from the results shown.
# Under AC50 [1], Cc1ccnc(NC(=O)CCCNC(=O)c2ccc(Cl)cc2)c1 has 7.31 µM [rising, partial curve]
# Under cell number change [%], CCN1C(=O)NC2C1N(S(C)(=O)=O)CCN2S(C)(=O)=O (stereo not given) has 0.209

# Additional structures follow.

Compound,cell number change [%],AC50 [1],AC50 [2]
O=c1cc(N2CCCCC2)nc2n1CCCS2,5.5,,
COc1ccc(S(=O)(=O)N2CCCC(C(=O)O)C2)cc1 (stereo not given),19.4,,
CC(Oc1cccc(F)c1)C(=O)Nc1ccc(N2CCOCC2)cc1 (stereo not given),25.6,"4.11 µM [rising, full curve, poor fit]","4.11 µM [rising, full curve, poor fit]"
Cc1ccc2oc(=O)cc(CN3CCOCC3)c2c1,18.4,"13 µM [rising, single point]",
CCC(=O)N1CCN(c2nc3ccc(Br)cc3s2)CC1,41.2,"29.1 µM [rising, single point]","29.1 µM [rising, single point]"
CC(=O)c1c(C(C)=O)c(C)n(Cc2ccc3c(c2)OCO3)c1C,-43.1,,"20.6 µM [falling, partial curve]"
CCOC(=O)c1ccc(NC2c3ccccc3C(=O)N2c2ccc(C)cn2)cc1 (stereo not given),3.31,"29.1 µM [rising, partial curve, poor fit]",
COc1ccc(C(=O)O/N=C(\N)Cc2cccs2)cc1OC,13.5,,
COc1ccc(S(=O)(=O)N2CCN(CC(=O)Nc3cccc(OC)c3)CC2)cc1,11.6,"0.116 µM [rising, full curve, poor fit]",
CC(=O)Oc1ccccc1-c1nc(/C=C/c2ccccc2)no1,11.5,"6.51 µM [rising, single point]",
C/C(=N\O)C1CC(CC(=O)O)C1(C)C (stereo not given),,"3.66 µM [falling, partial curve]",
CCOC(=O)c1c(NC(=S)NCC2CCCO2)sc(C)c1C (stereo not given),6.43,"2.31 µM [rising, single point]",
COc1ccc2nc(NC(=O)CSC3=NCCS3)sc2c1,-15.1,"1.64 µM [rising, partial curve]",
CCCOc1ccc(N2CC(C(=O)Nc3ccccc3F)CC2=O)cc1 (stereo not given),-0.816,"0.082 µM [rising, full curve, poor fit]",
COc1cc(NC(=O)c2cc(Br)cc(C)c2OC)ccc1NC(=O)C(C)C,123,,
Cc1ccccc1CC(=O)Nc1ccc(S(=O)(=O)N2CCOCC2)cc1,,"0.58 µM [rising, single point]",
CCOC(=O)NC(=O)C(=CNc1ccccc1C)C(=O)NC(=O)OCC,-7.69,"0.164 µM [falling, full curve, poor fit]",
O/N=C/c1cc(Cl)ccc1OCc1ccccc1Cl,-43,,"29.1 µM [falling, single point]"
O=C1c2ccc(Cl)cc2S(=O)(=O)c2cccc(C(=O)N3CCC(Cc4ccccc4)CC3)c21,-41.5,"0.517 µM [falling, full curve]","0.58 µM [falling, full curve]"
CCOC(=O)c1cn2nc(-c3ccc(OC)cc3)cc2nc1C1CCN(C(=O)OC(C)(C)C)CC1,-3.18,,
C=CCSC1=C(C#N)C(c2ccccc2C)CC(=O)N1 (stereo not given),27.2,,
Cn1c(CNC(=O)c2ccc(Cl)cc2)nnc1SCC(=O)NC1=NCCS1,-2.56,"8.2 µM [rising, partial curve]",

# Of the compounds above, 2 contain a thiophene ring, fused or not.
Compound,cell number change [%],AC50 [1],AC50 [2]
COc1ccc(C(=O)O/N=C(\N)Cc2cccs2)cc1OC,13.5,,
CCOC(=O)c1c(NC(=S)NCC2CCCO2)sc(C)c1C (stereo not given),6.43,"2.31 µM [rising, single point]",

# (further entries)

Compound,cell number change [%],AC50 [1],AC50 [2]
O=C(Nc1ccc(C(=O)NCCCN2CCN(c3ccc(F)cc3)CC2)cc1)C1=CSCCO1,-47.7,"18.4 µM [falling, single point]","29.1 µM [falling, single point]"
COc1ccc2cc(CCNS(=O)(=O)c3c(C)cc(C)cc3C)c(=O)[nH]c2c1,15.8,,
COCCn1c(SCC(=O)Nc2cccc(C)n2)nnc1-c1ccco1,-54.2,"7.31 µM [falling, partial curve]","7.31 µM [falling, partial curve]"
S=c1[nH]nc(CCc2ccc(Cl)cc2)o1,41.1,,"1.03 µM [rising, partial curve]"
C=CCOc1ccc(C(=O)Nc2ccc3c(c2)n(C)c(=O)n3C)cc1,17.2,"0.146 µM [rising, full curve, poor fit]",
Cc1sc2nc(N3CCOCC3)[nH]c(=O)c2c1-c1ccccc1,-46.7,"16.4 µM [falling, single point]","4.11 µM [falling, full curve]"
CNC(=S)SCCOc1ccccc1C,-34.3,"5.17 µM [falling, partial curve, poor fit]","4.11 µM [falling, partial curve, poor fit]"
O=C(c1ccc2c(=O)n3c(nc2c1)CCC3)N1CCN(S(=O)(=O)c2cccc(F)c2)CC1,-25,,"3.66 µM [falling, full curve, poor fit]"
O=C(CN1C(=O)C2CC=C(Cl)CC2C1=O)NCc1ccccc1 (stereo not given),1.35,,
O=C(Nc1cccc(S(=O)(=O)N2CCOCC2)c1)C1=NN(c2ccccc2)C(=O)CC1,19,"29.1 µM [falling, single point]",
O=C(NN1C(=O)/C(=C/C=C/c2ccco2)SC1=S)c1ccncc1,,"29.1 µM [rising, single point]",
Cc1ccc(C(CNC(=O)Nc2ccccc2)N2CCN(C)CC2)cc1 (stereo not given),,"29.1 µM [falling, single point]",
Cc1c(Cl)cccc1NC(=O)CCN1CCN(CCO)CC1,-9.79,"0.82 µM [rising, partial curve, poor fit]",
CC(C)(C)C(=O)/C=c1\[nH]c(=O)/c(=C\c2ccc(F)cc2)s1,-54.8,,"29.1 µM [falling, single point]"
O=C(O)c1cccc(NC(=S)N/N=C/c2ccccn2)c1,-7.51,"29.1 µM [rising, single point]","0.103 µM [falling, full curve, poor fit]"
COCCNC(=O)CCCCCNS(=O)(=O)c1ccc(C)cc1,-27.1,"29.1 µM [falling, single point]","0.731 µM [falling, full curve]"
Cc1ccc(NC(=S)N2CCC(NC(=O)c3ccco3)CC2)cc1C,42.7,,"16.4 µM [rising, partial curve, poor fit]"
Cc1oc(C)c(C(N)=O)c1C(N)=O,-58.4,"29.1 µM [falling, single point]","10.3 µM [falling, partial curve]"
CC(C)(C)c1ccc(C(=O)O/N=C(\N)c2ccccn2)cc1,-18.4,"0.1 µM [falling, full curve, poor fit]",
O=C(c1cccc(Cl)c1)N1CCC(=O)N(C(COCc2ccccc2)Cc2ccccc2)CC1 (stereo not given),18.9,,
